Data as given in the supplement of paper PMC12282887.
These are raw signals, not scaled to a control.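 For antimicrobials the highest concentration approximated the MIC. Most other compounds topped out at 500 µM, and known inducer-like compounds reached up to 1 mM. Inocula for deletion strains were tenfold smaller, and any well growing below 10% of the overall median was considered non-growing.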

Tested on: Escherichia coli BW25113
Assay: growth (OD600 area under curve, 8 h) (OD600 x h); higher = more growth
Protocol: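 E. coli BW25113 reporter strains (wild type, ΔmarA, ΔsoxS, Δrob, each carrying one of 8 lux reporter plasmids) were grown in 40 µl LB in 384-well plates at 37°C, 800 rpm, with each compound at 4 two-fold concentrations, in biological duplicates. Growth is the baseline-corrected OD600 area under the curve over 8 h (0-8 h WT, 1-9 h deletion strains).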

O=C(O)c1cn(C2CC2)c2cc(N3CCNCC3)c(F)cc2c1=O [Ciprofloxacin]
growth
Conditions	reporter plasmid: EVC	reporter plasmid: acrABp	reporter plasmid: marRABp	reporter plasmid: micFp	reporter plasmid: ompFp	reporter plasmid: robp	reporter plasmid: soxSp	reporter plasmid: tolCp
0.0012 µg/ml, genetic background: wild type	3.11	3.17	3.41	3.13	3.318	3.58	3.03	3.197
0.0012 µg/ml, genetic background: ΔmarA	3.27	4.39	3.98	3.18	3.56	3.97	2.77	2.97
0.0012 µg/ml, genetic background: Δrob	2.53	3	3.63	3.05	2.61	2.71	2.69	3.08
0.0012 µg/ml, genetic background: ΔsoxS	3	3.09	3.13	2.58	2.92	3.07	3.05	2.93
0.0025 µg/ml, genetic background: wild type	2.87	3.09	3.23	3.09	3.29	3.36	2.99	3.1312
0.0025 µg/ml, genetic background: ΔmarA	3.1	4.39	4.08	3.09	3.45	3.85	2.72	2.91
0.0025 µg/ml, genetic background: Δrob	2.41	3.02	3.47	2.71	2.6	2.74	2.72	3.03
0.0025 µg/ml, genetic background: ΔsoxS	2.88	2.91	3.15	2.35	2.92	2.96	3.06	2.97
0.005 µg/ml, genetic background: wild type	2.66	3.26	3.5	2.97	3.365	3.5	2.85	2.89
0.005 µg/ml, genetic background: ΔmarA	3.16	4.12	3.87	3.09	3.51	3.92	2.85	2.76
0.005 µg/ml, genetic background: Δrob	2.79	2.99	3.344	2.38	2.09	2.72	2.57	2.83
0.005 µg/ml, genetic background: ΔsoxS	3.09	2.99	3.09	2.63	3.05	3.43	2.89	2.8
0.0099 µg/ml, genetic background: wild type	1.73	0.983	1.17	1.49	0.524	0.754	2.35	1.91
0.0099 µg/ml, genetic background: ΔmarA	1.41	0.151	0.189	0.974	-0.0835	0.819	2.08	1.04
0.0099 µg/ml, genetic background: Δrob	1.07	0.0801	-0.0159	0.364	-0.0872	0.0196	1.85	1.05
0.0099 µg/ml, genetic background: ΔsoxS	1.59	0.0322	0.188	0.457	-0.0161	-0.0122	0.529	1.46

CC[C@H]1OC(=O)[C@H](C)[C@@H](O[C@H]2C[C@@](C)(OC)[C@@H](O)[C@H](C)O2)[C@H](C)[C@@H](O[C@@H]2O[C@H](C)C[C@H](N(C)C)[C@H]2O)[C@](C)(OC)C[C@@H](C)C(=O)[C@H](C)[C@@H](O)[C@]1(C)O [Clarithromycin]
growth
Conditions	reporter plasmid: EVC	reporter plasmid: acrABp	reporter plasmid: marRABp	reporter plasmid: micFp	reporter plasmid: ompFp	reporter plasmid: robp	reporter plasmid: soxSp	reporter plasmid: tolCp
3.7 µg/ml, genetic background: wild type	1.73	1.86	2.36	2.42	2.08	2.34	2.82	2.4
3.7 µg/ml, genetic background: ΔmarA	2.02	2.7	2.372	1.7	2.03	2.67	2.38	1.78
3.7 µg/ml, genetic background: Δrob	1.55	1.72	2.17	1.89	1.46	1.47	2.35	1.91
3.7 µg/ml, genetic background: ΔsoxS	1.74	1.69	1.97	1.35	1.77	1.61	1.74	1.65
7.5 µg/ml, genetic background: wild type	1.6	1.26	1.71	1.83	1.51	1.7	2.27	1.69
7.5 µg/ml, genetic background: ΔmarA	1.35	1.85	1.66	1.15	1.3	1.81	1.75	1.05
7.5 µg/ml, genetic background: Δrob	1.08	1.15	1.53	1.33	0.939	0.923	1.76	1.29
7.5 µg/ml, genetic background: ΔsoxS	1.09	0.891	1.13	0.663	1.05	0.808	0.944	1.02
15 µg/ml, genetic background: wild type	0.809	0.876	1.18	1.17	0.871	1.25	1.72	1.27
15 µg/ml, genetic background: ΔmarA	0.952	0.408	0.37	0.55	0.249	0.592	1.14	0.528
15 µg/ml, genetic background: Δrob	0.69	0.421	0.669	0.647	0.184	0.248	1.16	0.756
15 µg/ml, genetic background: ΔsoxS	0.629	0.356	0.378	0.238	0.377	0.194	0.334	0.54
29.9 µg/ml, genetic background: wild type	0.382	0.312	0.542	0.708	0.372	0.554	1.19	0.94
29.9 µg/ml, genetic background: ΔmarA	0.343	0.0347	0.0627	0.0916	-0.0275	0.195	0.562	0.0469
29.9 µg/ml, genetic background: Δrob	0.0306	0.0796	0.0989	0.198	-0.0275	0.0533	0.459	0.332
29.9 µg/ml, genetic background: ΔsoxS	0.129	0.056	0.0588	0.00347	0.0419	-0.00277	0.0975	0.137
